Measured values reported in the supplement of paper PMC11006884.
Most of the targets with a hit are listed elsewhere, so they are rarer here than in the full data. The data scatter; read single values as rough. The entries are a selection whose mix differs from that of the whole data set.

Amino acid sequences for entries named in this document (tags omitted). A change or cut given only in a name is not applied to a line headed by its entry.
UniProt P08243: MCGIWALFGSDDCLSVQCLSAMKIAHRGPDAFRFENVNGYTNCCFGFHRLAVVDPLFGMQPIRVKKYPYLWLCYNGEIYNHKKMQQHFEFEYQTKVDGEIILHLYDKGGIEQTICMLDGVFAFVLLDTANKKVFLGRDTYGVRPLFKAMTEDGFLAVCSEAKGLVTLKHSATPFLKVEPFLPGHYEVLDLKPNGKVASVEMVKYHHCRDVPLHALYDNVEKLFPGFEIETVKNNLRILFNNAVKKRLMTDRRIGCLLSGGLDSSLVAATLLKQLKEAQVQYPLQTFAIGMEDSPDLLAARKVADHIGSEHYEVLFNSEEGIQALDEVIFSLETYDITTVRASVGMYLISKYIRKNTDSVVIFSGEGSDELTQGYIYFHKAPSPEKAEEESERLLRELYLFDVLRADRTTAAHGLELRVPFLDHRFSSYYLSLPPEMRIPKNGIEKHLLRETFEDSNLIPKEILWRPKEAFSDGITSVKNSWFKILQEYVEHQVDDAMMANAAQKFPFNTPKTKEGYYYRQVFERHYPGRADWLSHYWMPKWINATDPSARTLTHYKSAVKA
UniProt P12236: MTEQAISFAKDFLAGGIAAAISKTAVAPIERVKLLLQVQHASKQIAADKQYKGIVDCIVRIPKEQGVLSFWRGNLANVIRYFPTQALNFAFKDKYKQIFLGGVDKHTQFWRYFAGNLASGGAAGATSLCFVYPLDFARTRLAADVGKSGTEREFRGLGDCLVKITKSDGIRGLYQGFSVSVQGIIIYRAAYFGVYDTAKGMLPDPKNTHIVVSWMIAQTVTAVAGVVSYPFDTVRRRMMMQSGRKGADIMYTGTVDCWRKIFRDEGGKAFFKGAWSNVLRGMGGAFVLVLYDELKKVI
UniProt P10809, whole entry, looked up: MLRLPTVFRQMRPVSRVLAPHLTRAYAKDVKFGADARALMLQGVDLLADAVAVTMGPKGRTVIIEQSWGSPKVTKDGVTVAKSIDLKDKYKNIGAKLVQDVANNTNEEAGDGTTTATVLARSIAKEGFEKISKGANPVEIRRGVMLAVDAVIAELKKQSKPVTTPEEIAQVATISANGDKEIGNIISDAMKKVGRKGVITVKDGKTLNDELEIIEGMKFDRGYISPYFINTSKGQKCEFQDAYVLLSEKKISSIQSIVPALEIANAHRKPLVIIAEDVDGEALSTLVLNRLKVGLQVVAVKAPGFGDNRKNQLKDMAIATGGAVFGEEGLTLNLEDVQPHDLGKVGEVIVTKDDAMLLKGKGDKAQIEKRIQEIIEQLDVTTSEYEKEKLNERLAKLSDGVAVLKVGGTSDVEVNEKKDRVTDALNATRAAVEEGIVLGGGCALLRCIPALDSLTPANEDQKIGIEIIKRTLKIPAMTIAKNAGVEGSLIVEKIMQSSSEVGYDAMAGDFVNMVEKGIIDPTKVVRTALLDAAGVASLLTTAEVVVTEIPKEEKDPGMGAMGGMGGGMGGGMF
UniProt P14866: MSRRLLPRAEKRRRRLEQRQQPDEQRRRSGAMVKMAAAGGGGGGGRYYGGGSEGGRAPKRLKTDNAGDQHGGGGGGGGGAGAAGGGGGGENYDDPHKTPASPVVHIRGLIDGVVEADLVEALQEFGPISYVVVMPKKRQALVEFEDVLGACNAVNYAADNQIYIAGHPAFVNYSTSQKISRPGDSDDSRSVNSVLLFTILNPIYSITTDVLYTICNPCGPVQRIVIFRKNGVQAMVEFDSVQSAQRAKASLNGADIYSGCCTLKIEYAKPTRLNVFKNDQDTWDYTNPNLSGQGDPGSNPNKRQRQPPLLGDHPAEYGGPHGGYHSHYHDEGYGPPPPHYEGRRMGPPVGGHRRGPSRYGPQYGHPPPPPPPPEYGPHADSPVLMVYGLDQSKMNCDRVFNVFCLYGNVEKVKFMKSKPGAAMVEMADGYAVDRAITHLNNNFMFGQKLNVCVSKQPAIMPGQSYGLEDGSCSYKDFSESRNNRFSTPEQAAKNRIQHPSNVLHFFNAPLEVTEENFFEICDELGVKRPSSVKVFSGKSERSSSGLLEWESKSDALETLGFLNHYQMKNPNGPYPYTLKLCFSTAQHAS
UniProt P17812: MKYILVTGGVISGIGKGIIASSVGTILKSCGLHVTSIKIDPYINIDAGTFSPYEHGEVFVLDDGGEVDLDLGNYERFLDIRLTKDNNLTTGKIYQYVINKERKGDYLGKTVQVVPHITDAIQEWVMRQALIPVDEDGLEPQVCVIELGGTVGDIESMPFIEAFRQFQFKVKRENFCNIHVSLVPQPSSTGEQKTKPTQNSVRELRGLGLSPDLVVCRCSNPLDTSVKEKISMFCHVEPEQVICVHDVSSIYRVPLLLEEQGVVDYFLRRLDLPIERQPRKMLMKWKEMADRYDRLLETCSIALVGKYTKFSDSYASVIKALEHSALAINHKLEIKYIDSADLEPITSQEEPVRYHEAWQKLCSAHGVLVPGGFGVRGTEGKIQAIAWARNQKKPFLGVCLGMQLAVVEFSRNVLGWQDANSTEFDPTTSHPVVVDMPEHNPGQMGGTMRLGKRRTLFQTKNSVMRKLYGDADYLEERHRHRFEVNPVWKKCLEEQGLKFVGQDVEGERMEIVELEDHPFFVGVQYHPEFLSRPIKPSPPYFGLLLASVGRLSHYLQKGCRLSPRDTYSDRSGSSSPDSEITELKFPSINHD
UniProt P07814: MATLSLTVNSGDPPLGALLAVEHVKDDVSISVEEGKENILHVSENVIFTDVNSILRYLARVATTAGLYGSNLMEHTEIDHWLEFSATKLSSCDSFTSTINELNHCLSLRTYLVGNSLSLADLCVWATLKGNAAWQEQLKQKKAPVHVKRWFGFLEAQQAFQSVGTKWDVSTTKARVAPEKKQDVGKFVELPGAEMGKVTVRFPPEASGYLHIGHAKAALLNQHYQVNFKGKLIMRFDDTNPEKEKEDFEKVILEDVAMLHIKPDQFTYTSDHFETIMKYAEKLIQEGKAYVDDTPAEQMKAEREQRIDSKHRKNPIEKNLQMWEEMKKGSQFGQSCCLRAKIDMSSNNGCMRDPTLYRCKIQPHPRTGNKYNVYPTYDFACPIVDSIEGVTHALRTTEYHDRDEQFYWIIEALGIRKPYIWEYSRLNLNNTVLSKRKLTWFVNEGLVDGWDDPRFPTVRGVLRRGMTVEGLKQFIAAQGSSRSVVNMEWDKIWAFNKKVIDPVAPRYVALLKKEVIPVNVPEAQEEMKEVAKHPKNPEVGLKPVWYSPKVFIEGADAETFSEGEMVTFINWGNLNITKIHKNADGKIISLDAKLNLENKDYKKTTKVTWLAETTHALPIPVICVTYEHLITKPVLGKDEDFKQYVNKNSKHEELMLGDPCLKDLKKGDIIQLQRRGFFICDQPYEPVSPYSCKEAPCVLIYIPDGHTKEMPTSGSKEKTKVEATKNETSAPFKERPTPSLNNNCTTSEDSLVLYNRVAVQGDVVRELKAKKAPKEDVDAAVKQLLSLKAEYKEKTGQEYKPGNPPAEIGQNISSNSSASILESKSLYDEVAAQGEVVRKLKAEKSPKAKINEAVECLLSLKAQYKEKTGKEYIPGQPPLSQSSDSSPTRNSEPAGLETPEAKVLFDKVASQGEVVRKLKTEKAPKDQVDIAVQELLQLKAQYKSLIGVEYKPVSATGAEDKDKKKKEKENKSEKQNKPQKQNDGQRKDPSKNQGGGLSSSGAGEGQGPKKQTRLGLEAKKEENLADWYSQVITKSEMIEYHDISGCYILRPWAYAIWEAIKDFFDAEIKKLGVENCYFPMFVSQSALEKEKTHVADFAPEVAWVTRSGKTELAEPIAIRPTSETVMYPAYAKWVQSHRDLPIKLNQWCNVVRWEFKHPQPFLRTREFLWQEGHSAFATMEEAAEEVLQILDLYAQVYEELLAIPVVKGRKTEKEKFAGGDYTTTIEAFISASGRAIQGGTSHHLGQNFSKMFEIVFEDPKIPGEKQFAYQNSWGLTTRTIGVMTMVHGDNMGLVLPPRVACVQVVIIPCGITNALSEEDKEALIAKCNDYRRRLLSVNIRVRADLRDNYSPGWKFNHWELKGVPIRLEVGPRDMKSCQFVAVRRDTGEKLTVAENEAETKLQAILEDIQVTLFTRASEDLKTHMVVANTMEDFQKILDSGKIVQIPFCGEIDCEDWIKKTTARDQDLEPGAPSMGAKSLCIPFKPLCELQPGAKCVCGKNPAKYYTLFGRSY
UniProt P10515, whole entry: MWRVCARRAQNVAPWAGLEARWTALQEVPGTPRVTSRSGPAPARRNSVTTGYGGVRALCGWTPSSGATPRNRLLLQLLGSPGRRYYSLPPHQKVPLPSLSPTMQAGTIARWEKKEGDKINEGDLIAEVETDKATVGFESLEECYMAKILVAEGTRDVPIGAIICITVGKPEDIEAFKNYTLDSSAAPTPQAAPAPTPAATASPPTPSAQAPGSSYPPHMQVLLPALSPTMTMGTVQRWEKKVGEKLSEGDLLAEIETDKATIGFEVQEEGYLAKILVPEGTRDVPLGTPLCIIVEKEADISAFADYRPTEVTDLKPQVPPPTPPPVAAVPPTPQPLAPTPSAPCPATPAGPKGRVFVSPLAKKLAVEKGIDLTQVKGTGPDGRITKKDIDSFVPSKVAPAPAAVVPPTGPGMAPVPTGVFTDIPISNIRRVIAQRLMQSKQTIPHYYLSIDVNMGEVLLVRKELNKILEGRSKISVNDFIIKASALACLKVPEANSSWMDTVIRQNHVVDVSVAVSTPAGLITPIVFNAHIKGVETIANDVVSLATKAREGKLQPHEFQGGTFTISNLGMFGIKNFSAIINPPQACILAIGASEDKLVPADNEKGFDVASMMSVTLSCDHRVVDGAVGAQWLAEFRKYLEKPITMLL
UniProt P13861, whole entry, looked up: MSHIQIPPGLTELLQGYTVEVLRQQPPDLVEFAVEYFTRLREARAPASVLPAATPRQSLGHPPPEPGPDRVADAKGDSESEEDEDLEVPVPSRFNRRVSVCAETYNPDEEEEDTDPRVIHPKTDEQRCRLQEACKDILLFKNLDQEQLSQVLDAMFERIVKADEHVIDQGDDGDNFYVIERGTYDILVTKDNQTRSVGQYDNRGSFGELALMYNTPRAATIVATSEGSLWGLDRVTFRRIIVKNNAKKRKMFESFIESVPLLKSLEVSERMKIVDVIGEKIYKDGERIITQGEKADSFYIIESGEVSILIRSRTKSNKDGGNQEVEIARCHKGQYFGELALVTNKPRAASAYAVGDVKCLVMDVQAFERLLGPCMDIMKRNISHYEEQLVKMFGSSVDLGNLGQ
UniProt P13056: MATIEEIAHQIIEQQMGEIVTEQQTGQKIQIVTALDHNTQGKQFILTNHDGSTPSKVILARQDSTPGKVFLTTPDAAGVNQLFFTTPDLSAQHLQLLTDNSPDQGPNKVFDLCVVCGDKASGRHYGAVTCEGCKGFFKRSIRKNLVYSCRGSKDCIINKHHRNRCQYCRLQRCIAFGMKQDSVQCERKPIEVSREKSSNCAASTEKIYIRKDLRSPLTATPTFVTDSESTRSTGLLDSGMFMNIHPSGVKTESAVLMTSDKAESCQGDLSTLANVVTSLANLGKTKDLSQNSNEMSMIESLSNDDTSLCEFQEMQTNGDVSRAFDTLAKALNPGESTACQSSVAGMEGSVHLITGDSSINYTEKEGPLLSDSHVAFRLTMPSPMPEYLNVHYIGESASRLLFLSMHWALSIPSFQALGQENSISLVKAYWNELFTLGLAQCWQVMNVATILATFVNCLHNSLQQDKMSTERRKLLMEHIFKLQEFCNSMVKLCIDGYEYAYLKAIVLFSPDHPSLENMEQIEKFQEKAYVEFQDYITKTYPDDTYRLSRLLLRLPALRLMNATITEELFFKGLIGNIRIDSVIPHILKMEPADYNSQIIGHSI
UniProt P10636, whole entry: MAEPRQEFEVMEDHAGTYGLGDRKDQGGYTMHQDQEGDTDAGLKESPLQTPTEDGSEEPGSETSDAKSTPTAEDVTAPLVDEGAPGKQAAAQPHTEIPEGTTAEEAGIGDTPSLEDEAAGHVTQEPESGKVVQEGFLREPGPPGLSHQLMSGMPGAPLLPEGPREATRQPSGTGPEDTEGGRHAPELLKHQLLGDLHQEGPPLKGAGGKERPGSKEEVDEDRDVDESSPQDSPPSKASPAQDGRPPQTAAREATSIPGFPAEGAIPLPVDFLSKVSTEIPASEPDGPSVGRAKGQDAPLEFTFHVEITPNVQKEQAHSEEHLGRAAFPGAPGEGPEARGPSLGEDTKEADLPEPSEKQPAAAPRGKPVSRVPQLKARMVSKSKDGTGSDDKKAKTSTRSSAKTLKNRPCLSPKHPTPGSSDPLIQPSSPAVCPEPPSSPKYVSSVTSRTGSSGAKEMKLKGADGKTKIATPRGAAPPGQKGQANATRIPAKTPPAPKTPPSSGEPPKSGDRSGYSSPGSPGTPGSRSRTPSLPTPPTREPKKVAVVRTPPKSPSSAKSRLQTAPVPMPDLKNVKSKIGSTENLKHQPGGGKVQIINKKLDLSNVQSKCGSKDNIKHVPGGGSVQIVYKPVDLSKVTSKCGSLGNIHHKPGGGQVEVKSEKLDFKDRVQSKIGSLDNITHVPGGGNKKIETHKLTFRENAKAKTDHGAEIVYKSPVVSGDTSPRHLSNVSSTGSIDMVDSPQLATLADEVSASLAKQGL

Compound: COC(=O)/C=C/c1ccccc1 [methyl cinnamate]
Assay: log2 ratio of iodoacetamide-alkyne labeling of the cysteine site, DMSO over compound (competition); higher = stronger covalent engagement of the cysteine by the compound, active = 1 or more
Conditions: 500 µM; treatment time 1 h; system: HEK293T cell lysate
Procedure, shortened: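 For each cysteine, the log2 competition ratio is mean control-channel reporter intensity over mean compound-channel reporter intensity. HEK293T lysate (2 mg/mL) was exposed to vehicle or electrophile (500 µM, 1 h, ambient temperature), labelled with iodoacetamide alkyne (1 h), clicked to sCIP-TMT reagents, digested overnight with trypsin at 37 °C, streptavidin-enriched and analysed by Orbitrap Eclipse LC-MS/MS with FAIMS and FragPipe. Cysteines quantified in only one of three replicates, each with duplicate channels, were excluded.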

log2 ratio of iodoacetamide-alkyne labeling, inactive:
DSP C1069 (UniProt P15924) 0.412, IGF2R C1408 (UniProt P11717) 0.318, GYS1 C699 (UniProt P13807) 0.411, ASNS C255 (UniProt P08243) -0.191, RNH1 C45 (UniProt P13489) -0.0228, SLC25A6 C257 (UniProt P12236) 0.128, HSPD1 C447 (UniProt P10809) 0.397, EEF2 C136 (UniProt P13639) 0.00515, AKR1B1 C299 (UniProt P15121) -0.035, HNRNPL C472 (UniProt P14866) 0.146, PARP1 C845 (UniProt P09874) 0.243, UniProt P17812_C176 -0.241, ALAS1 C249 (UniProt P13196) 0.235, CLTB C199 (UniProt P09497) 0.619, EPRS C92 (UniProt P07814) 0.337, HNRNPL C452 (UniProt P14866) 0.161, RPS2 C182 (UniProt P15880) 0.0673, DLAT C586 (UniProt P10515) -0.0135, PDIA4 C555 (UniProt P13667) 0.127, PABPC1 C132 (UniProt P11940) 0.116, PLS3 C33 (UniProt P13797) 0.19, LTA4H C8 (UniProt P09960) 0.181, RPS2 C229 (UniProt P15880) 0.145, NME1 C145 (UniProt P15531) 0.119, UniProt P10155_C71 0.205, EEF2 C536 (UniProt P13639) -0.804, PRKAR2A C128 (UniProt P13861) 0.088, NR2C1 C265 (UniProt P13056) 0.0452, HNRNPL C261 (UniProt P14866) -0.317, APEH C30 (UniProt P13798) -0.0282, U2AF1L5 C67 (UniProt P0DN76) 0.00948, MAPT C639 (UniProt P10636) 0.257, RNH1 C248 (UniProt P13489) 0.0979, HSP90AB1 C366 (UniProt P08238) -0.0324, HNRNPL C151 (UniProt P14866) 0.0911, EEF2 C728 (UniProt P13639) 0.112, IMPDH2 C468 (UniProt P12268) 0.0596
